What all share (assay): pull-down; 10 μg GST fusion protein on 10 μl glutathione-Sepharose beads incubated with 5 μl nonradioactive in vitro-translated protein in 500 μl binding buffer, 2 h at 4 °C; washed five times with 100 mM NaCl, 20 mM HEPES pH 7.9, 0.1% NP-40, 5 mM MgCl2, 0.5 mM PMSF; bound protein detected by western blotting; only the target purified
For experiment [1], the target named is T1, GST–Nrf2 (UniProt Q60795).
T1 sequence: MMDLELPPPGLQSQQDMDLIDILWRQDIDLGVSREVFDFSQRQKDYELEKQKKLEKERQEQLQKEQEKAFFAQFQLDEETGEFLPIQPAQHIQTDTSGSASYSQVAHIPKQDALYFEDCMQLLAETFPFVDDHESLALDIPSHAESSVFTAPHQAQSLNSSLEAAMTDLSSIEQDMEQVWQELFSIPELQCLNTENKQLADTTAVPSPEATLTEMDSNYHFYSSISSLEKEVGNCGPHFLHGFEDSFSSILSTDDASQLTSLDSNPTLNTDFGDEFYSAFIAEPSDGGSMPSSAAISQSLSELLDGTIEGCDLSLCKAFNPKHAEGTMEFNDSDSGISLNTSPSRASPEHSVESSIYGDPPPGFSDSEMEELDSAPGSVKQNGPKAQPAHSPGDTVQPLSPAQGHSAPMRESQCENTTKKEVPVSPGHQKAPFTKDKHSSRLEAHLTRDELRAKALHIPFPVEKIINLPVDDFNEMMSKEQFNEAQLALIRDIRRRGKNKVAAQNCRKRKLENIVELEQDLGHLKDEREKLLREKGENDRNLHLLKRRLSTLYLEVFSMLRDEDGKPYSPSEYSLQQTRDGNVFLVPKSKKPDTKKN

Experiment [2] addresses GST–MafK CT78 (aa 78–156) (rat).
Experiment [3] concerns the target GST–MafK (rat).

These are yes or no findings as the source states them, for the method shown. In cells and extracts the contact can be indirect. Binding can be weak; no strength is given. For part of these data: Tags and fused reporters may be left off the sequences shown.

As to in vitro-translated MafK (rat), the binding entry in experiment [1] is listed as “binds”.

B1: in vitro-translated Nrf2 (protein, UniProt Q60795 1-597)
chain: T1 sequence
For the molecule B1, the binding result in experiment [2] and in experiment [3] was “binds” in each case.

(Values after PMC3847324, “Jun dimerization protein 2 is a critical component of the Nrf2/MafK complex regulating the response to ROS homeostasis”.)
